Test results from paper PMC7863998.
Results are given in words; binding and its absence hold for the method and conditions named. Binding seen in cells or lysates may run through a third protein. Here binding means that the protein was enriched with, or labelled near, the bait; the list need not be complete. A no says only that the protein was not detected with the bait.

Sequences of proteins named here, by UniProt entry; tags and fusion partners are left off.
UniProt P51532: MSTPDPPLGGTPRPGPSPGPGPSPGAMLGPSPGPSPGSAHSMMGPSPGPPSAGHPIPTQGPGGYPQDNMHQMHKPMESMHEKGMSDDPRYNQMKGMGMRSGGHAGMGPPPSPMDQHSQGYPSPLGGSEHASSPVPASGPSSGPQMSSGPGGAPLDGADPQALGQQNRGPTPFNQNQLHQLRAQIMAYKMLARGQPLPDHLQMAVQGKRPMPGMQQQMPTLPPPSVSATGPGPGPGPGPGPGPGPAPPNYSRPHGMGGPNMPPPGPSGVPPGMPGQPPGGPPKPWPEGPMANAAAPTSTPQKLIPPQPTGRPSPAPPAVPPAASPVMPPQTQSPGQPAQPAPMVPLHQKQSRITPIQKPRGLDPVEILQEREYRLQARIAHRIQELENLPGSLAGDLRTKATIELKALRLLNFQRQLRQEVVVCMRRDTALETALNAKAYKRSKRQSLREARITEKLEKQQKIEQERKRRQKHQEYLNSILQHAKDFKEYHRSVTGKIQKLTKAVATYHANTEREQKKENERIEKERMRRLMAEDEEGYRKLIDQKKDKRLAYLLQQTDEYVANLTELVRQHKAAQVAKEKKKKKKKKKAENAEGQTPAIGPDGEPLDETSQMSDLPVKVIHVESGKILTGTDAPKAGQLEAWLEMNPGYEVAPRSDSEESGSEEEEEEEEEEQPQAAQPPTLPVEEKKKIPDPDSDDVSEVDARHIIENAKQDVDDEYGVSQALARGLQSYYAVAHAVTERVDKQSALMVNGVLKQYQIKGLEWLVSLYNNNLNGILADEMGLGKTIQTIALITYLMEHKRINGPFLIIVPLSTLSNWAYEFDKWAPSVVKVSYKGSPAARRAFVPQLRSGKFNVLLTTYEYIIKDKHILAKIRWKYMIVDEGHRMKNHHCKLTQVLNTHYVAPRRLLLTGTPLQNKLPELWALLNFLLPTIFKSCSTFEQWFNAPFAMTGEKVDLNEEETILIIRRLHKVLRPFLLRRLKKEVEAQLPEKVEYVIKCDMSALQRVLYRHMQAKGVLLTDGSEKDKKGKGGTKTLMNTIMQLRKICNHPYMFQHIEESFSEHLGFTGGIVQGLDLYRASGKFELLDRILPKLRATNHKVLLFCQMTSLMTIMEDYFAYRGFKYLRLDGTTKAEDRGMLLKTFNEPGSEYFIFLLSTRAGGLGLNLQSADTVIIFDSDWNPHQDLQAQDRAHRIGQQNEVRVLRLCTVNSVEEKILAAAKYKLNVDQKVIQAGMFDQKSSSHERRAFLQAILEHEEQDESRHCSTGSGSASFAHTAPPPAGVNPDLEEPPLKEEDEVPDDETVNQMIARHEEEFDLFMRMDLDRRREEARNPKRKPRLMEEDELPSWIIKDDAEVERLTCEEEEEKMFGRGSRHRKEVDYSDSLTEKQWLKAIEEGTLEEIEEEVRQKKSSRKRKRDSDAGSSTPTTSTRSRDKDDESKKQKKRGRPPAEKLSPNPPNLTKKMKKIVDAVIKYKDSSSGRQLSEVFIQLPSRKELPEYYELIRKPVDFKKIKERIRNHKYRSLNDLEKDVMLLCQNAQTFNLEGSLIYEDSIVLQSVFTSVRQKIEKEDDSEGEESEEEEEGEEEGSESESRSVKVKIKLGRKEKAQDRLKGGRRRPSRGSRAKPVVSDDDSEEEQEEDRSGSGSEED
UniProt Q86U86: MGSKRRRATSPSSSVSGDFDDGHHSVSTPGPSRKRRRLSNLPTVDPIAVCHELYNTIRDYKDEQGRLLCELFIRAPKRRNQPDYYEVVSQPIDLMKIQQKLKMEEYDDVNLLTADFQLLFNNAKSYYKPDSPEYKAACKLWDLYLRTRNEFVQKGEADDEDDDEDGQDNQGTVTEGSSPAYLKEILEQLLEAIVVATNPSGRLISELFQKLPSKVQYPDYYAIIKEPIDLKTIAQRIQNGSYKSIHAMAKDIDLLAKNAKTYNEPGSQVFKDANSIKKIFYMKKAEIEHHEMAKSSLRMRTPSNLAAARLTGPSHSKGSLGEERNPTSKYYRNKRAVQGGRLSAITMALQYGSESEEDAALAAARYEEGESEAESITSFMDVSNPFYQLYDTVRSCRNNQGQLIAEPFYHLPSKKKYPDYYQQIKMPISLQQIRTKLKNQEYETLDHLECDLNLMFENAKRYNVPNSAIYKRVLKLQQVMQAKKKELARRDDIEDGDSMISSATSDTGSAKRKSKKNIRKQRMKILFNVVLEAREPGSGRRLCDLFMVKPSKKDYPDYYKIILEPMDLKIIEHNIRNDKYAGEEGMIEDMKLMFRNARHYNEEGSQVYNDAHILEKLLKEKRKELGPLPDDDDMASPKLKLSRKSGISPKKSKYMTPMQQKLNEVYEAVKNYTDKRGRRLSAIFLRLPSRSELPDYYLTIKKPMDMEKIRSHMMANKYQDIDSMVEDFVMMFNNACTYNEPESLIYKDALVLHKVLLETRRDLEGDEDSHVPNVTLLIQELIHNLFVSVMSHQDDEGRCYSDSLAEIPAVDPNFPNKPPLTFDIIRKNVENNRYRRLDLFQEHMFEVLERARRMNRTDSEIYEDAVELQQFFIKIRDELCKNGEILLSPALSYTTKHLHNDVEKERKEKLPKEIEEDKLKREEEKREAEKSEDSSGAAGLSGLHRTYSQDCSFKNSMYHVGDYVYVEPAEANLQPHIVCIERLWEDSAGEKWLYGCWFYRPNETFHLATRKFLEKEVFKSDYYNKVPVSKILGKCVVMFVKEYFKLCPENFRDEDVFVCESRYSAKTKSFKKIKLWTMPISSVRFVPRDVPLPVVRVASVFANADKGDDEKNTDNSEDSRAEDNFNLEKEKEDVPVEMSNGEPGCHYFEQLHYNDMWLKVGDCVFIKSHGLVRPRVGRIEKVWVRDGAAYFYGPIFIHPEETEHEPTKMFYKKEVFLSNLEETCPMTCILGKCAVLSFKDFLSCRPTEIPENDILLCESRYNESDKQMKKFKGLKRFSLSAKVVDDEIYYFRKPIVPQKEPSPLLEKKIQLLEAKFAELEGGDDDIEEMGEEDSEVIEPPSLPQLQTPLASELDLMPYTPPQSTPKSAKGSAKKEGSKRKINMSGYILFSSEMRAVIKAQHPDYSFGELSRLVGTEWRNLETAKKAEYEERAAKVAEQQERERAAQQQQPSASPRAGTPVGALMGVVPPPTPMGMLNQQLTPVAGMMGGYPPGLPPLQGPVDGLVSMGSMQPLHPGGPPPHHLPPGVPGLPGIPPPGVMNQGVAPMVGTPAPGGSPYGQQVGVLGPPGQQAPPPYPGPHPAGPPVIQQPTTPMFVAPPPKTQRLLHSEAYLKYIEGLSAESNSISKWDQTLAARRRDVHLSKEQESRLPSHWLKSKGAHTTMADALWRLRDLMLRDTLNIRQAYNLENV
UniProt Q6STE5: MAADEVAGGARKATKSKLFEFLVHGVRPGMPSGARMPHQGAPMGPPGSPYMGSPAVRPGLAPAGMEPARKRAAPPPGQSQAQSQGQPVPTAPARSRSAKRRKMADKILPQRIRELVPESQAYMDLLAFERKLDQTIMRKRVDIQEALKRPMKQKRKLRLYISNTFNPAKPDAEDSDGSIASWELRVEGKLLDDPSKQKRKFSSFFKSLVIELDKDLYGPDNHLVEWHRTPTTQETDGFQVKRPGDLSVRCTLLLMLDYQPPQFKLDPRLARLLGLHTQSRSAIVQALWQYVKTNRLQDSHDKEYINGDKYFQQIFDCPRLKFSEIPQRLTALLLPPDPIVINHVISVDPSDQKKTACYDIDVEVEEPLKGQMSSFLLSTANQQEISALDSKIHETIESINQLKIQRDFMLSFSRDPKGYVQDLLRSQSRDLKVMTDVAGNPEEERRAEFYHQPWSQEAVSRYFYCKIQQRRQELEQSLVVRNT
UniProt O96019: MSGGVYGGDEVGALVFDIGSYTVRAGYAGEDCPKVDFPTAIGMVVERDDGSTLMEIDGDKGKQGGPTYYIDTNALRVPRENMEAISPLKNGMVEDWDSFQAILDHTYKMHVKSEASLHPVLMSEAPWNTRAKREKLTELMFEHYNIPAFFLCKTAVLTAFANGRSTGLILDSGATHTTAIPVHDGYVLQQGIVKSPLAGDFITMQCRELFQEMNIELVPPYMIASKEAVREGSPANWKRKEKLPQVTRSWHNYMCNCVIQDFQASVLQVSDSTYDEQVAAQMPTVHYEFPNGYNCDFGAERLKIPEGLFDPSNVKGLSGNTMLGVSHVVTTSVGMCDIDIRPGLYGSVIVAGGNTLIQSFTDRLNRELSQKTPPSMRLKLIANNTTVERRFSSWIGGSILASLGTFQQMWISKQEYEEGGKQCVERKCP
UniProt Q9NPI1: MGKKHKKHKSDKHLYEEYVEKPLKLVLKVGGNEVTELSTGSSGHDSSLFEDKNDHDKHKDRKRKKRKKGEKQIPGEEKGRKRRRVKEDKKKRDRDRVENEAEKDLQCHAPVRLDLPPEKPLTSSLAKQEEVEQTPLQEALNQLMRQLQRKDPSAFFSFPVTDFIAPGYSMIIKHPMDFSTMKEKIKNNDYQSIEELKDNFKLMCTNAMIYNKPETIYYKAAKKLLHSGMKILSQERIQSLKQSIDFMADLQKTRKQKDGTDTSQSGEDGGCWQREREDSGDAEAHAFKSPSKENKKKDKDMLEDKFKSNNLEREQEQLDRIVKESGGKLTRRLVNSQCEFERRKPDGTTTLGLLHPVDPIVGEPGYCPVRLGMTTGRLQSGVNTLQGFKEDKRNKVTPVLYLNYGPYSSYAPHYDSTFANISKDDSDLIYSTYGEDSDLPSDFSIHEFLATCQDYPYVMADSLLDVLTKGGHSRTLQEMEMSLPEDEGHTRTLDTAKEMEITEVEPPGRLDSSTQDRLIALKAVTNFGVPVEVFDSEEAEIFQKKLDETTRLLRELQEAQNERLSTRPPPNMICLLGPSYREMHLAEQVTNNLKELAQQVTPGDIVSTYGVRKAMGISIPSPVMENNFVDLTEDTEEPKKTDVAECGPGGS
UniProt Q12824: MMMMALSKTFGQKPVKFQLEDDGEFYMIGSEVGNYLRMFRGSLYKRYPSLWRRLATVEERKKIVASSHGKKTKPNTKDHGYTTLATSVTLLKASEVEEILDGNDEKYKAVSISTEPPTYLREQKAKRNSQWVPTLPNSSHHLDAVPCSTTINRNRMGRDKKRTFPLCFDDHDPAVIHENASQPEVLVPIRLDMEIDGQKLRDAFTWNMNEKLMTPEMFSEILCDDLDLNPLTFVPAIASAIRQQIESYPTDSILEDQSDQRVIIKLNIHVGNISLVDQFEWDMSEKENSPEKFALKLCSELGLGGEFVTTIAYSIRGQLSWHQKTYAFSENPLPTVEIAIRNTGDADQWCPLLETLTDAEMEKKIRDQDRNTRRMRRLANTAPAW
UniProt Q8TAQ2: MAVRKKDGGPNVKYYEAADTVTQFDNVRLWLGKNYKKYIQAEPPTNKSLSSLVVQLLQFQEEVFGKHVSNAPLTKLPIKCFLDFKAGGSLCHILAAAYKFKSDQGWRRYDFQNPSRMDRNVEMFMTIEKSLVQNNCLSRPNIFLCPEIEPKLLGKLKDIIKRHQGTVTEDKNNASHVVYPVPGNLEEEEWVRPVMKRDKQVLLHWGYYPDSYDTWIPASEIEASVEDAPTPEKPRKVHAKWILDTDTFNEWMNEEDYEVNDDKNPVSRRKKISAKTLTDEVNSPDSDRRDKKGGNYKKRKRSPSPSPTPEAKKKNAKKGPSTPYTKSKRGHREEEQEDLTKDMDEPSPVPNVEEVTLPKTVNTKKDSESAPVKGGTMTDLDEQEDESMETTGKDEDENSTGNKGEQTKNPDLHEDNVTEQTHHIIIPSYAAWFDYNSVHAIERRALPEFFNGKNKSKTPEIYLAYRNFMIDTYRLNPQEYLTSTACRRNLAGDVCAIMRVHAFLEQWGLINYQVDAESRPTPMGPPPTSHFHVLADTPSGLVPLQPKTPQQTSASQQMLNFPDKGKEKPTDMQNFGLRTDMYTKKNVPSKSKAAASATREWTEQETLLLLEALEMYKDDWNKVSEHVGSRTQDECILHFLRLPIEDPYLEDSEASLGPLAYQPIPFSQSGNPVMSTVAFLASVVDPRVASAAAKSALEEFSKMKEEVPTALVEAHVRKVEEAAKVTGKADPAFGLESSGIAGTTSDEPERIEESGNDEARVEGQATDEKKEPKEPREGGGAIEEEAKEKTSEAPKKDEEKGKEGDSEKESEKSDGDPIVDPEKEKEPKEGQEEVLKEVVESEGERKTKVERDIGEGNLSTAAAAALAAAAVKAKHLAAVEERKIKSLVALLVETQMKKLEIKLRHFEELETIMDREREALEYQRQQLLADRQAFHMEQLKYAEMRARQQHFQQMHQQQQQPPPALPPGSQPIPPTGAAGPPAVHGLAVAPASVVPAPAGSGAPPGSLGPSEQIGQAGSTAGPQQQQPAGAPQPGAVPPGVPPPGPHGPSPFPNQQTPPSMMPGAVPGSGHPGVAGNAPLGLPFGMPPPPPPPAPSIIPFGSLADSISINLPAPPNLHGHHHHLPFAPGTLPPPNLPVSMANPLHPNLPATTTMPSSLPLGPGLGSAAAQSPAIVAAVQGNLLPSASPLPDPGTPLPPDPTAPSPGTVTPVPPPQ

Target: T1, NCAPH2, the kleisin subunit of condensin II (human (endogenous in HEK-293T)) (UniProt Q6IBW4)
T1 sequence: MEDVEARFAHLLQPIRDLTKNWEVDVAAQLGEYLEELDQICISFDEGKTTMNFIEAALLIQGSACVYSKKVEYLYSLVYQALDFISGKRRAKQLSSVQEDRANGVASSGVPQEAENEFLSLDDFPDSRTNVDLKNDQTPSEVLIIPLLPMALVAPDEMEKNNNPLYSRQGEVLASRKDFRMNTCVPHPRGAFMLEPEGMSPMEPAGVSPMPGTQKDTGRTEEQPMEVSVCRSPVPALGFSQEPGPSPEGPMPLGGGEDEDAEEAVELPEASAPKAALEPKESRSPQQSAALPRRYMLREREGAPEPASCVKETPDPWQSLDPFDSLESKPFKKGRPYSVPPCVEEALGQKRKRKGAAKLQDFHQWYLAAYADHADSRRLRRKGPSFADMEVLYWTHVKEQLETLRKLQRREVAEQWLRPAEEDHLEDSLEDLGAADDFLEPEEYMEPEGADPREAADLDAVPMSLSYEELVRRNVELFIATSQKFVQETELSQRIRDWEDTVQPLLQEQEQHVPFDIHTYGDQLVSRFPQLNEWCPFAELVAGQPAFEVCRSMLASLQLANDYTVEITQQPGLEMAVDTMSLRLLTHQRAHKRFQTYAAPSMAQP
Experiment: affinity purification with mass spectrometry; immunoprecipitation with B276 versus rabbit IG from nuclear lysate of formaldehyde-crosslinked HEK 293T cells; RIPA buffer, Benzonase; SAINTexpress; performed twice

binding | Substance
no binding | SMARCA4 (from UniProt P51532 1-1647)
no binding | SMARCE1 (from UniProt Q969G3 1-411)

Target: T1, NCAPH2, the kleisin subunit of condensin II (human (endogenous in HEK-293T))
Experiment: affinity purification with mass spectrometry; immunoprecipitation with B276 versus rabbit IG from nuclear lysate of non-crosslinked HEK 293T cells; Benzonase, washes with 150mM NaCl; SAINTexpress; performed once

Substance | binding
DPF2 (from UniProt Q92785 1-391) | no binding
PBRM1 (from UniProt Q86U86 1-1689) | no binding
SMARCA2 (from UniProt P51531 1-1590) | no binding
SMARCD1 (from UniProt Q96GM5 1-515) | no binding
SMARCD2 (from UniProt Q92925 1-531) | no binding
SMARCD3 (from UniProt Q6STE5 1-483) | no binding
SMARCE1 (from UniProt Q969G3 1-411) | no binding

Second part, the substance after the results:

binding | Substance
no binding | ACTL6A (from UniProt O96019 1-429)
no binding | BRD7 (from UniProt Q9NPI1 1-651)
no binding | SMARCA4 (from UniProt P51532 1-1647)
no binding | SMARCB1 (from UniProt Q12824 1-385)
no binding | SMARCC2 (from UniProt Q8TAQ2 1-1214)

Target: T2, Ncaph2 (mouse embryonic stem cells) (mouse (endogenous in E14 mESC)) (UniProt Q8BSP2)
T2 sequence: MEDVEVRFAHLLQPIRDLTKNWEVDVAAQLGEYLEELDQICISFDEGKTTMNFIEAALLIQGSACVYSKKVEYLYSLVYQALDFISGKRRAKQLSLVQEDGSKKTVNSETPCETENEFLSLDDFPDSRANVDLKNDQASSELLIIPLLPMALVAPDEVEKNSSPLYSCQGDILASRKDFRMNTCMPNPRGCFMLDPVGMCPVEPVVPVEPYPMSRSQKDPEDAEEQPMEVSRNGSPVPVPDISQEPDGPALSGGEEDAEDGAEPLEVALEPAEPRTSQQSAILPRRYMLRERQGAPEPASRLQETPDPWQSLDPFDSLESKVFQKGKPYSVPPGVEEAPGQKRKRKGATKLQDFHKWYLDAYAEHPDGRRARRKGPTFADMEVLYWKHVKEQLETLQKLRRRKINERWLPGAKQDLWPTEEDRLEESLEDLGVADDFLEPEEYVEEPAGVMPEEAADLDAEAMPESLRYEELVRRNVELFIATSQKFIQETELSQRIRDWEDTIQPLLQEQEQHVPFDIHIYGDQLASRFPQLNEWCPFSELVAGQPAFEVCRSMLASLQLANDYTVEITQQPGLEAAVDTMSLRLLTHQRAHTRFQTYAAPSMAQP
Experiment: affinity purification with mass spectrometry; immunoprecipitation with B276 (Bethyl A302-276A) versus rabbit IgG from E14 mESC whole cell extract, without crosslinking; 1% triton buffer, 5°C for 2 hours; label free quantification, n = 4

binding | Substance
no binding | Smarcc1/Baf155 subunit (from UniProt P97496 1-1104)
